Values from PubChem BioAssay AID686943 (Drosophila RNAi Screening Center, 2013).

- Assay: 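Search across the genome for regulators of signalling from receptor tyrosine kinase to ERK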 (primary screen)
- Cell system: Drosophila S2R+ haemocyte-like cells expressing YFP-tagged ERK (Rolled)
- Reagents: long dsRNA against Drosophila genes
- Treatment: insulin stimulation versus unstimulated cells; dose and duration not given
- Measured: 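Antibody staining for doubly phosphorylated ERK divided by ERK-YFP signal, as plate z-scores, in insulin-treated and untreated cells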
- Reading the numbers: replicate 1, z-score of dpERK with insulin and replicate 2, z-score of dpERK with insulin: higher = more active ERK per ERK-YFP after insulin; replicate 1, z-score of dpERK under basal conditions: higher = more basal active ERK per ERK-YFP; replicate 1, z-score of ERK-YFP with insulin: higher = more YFP-tagged ERK signal
The screen tested about 23,000 reagents; this is an unselected part of those with a known target gene and a result. 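Extra replicates exist only for a retested subset of genes; insulin dose and duration not given; both raised and lowered dpERK matter.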 Reagent sequences are not shown. Not given: the amount of reagent, the time to read-out.

no.	target	amplicon	replicate 1, z-score of dpERK with insulin	replicate 2, z-score of dpERK with insulin	replicate 1, z-score of dpERK under basal conditions	replicate 1, z-score of ERK-YFP with insulin
1	Cam (Calmodulin)	DRSC07353	1.15	0.48	1.61	0
2	Cam (Calmodulin)	DRSC07354	0.56	0.43	-0.16	-0.63
3	CG7275	DRSC10796	-0.33	0.27	-0.34	0.01
4	klhl10 (kelch like family member 10)	DRSC05274	0.25	-0.89	0.19	-0.14
5	klhl10 (kelch like family member 10)	DRSC19171	0.5	1.6	0.09	-0.25
6	klhl10 (kelch like family member 10)	DRSC20750	-1.38	0.08	0.95	0.36
7	klhl10 (kelch like family member 10)	DRSC20925	0.06	0.07	1.52	0.33
8	CG2258	DRSC18222	-1.13	-0.16	-0.32	0.79
9	CG34286	DRSC13372	0.89	0.71	0.56	0.55
10	CG34286	DRSC21790	-1.24	-1.04	-0.09	0.43
11	CG6118	DRSC15968	2.58	-3.99	-1.55	-1.35
12	CG32195	DRSC09533	-0.25	0.09	0.29	0.47
13	CG14757	DRSC06492	0.42	-0.2	-0.63	1.4
14	msk (moleskin)	DRSC11340	1.68	0.66	0.64	-2.7
15	CG5793	DRSC15874	1.01	-0.27	0.35	-0.27
16	mio (missing oocyte)	DRSC00692	-1.28	-0.22	0.23	-0.88
17	mio (missing oocyte)	DRSC22056	0.93	-1.14	0.9	-1.5
18	Nubp2 (NUBP iron-sulfur cluster assembly factor 2)	DRSC11758	0.28	0.89	0.99	-0.16
19	ple (pale)	DRSC11383	-1.5	-1.74	0.71	0.45
20	CG18368	DRSC06731	-0.11	-0.87	1.17	0.8
21	CG5808	DRSC14124	0.67	-0.32	0.02	-1.14
22	sals (sarcomere length short)	DRSC14925	1.02	-0.05	-0.39	-2.82
23	sals (sarcomere length short)	DRSC16113	-0.14	0.24	-0.11	-0.34
24	HisT (Histamine transporter)	DRSC05051	0.32	0.91	0.27	0.05
25	HisT (Histamine transporter)	DRSC05052	0.52	-0.47	-1.84	-1.07
26	HisT (Histamine transporter)	DRSC06405	-0.14	-1.61	0	-1.29
27	Qsox1 (Quiescin sulfhydryl oxidase 1)	DRSC06878	1.3	0.81	1.46	-0.68

8 of these entries, set out differently:
Cam (Calmodulin) [DRSC07354]
- replicate 1, z-score of dpERK with insulin: 0.56
- replicate 2, z-score of dpERK with insulin: 0.43
- replicate 1, z-score of dpERK under basal conditions: -0.16
- replicate 1, z-score of ERK-YFP with insulin: -0.63

CG7275 [DRSC10796]
- replicate 1, z-score of dpERK with insulin: -0.33
- replicate 2, z-score of dpERK with insulin: 0.27
- replicate 1, z-score of dpERK under basal conditions: -0.34
- replicate 1, z-score of ERK-YFP with insulin: 0.01

klhl10 (kelch like family member 10) [DRSC05274]
- replicate 1, z-score of dpERK with insulin: 0.25
- replicate 2, z-score of dpERK with insulin: -0.89
- replicate 1, z-score of dpERK under basal conditions: 0.19
- replicate 1, z-score of ERK-YFP with insulin: -0.14

klhl10 (kelch like family member 10) [DRSC19171]
- replicate 1, z-score of dpERK with insulin: 0.5
- replicate 2, z-score of dpERK with insulin: 1.6
- replicate 1, z-score of dpERK under basal conditions: 0.09
- replicate 1, z-score of ERK-YFP with insulin: -0.25

klhl10 (kelch like family member 10) [DRSC20750]
- replicate 1, z-score of dpERK with insulin: -1.38
- replicate 2, z-score of dpERK with insulin: 0.08
- replicate 1, z-score of dpERK under basal conditions: 0.95
- replicate 1, z-score of ERK-YFP with insulin: 0.36

klhl10 (kelch like family member 10) [DRSC20925]
- replicate 1, z-score of dpERK with insulin: 0.06
- replicate 2, z-score of dpERK with insulin: 0.07
- replicate 1, z-score of dpERK under basal conditions: 1.52
- replicate 1, z-score of ERK-YFP with insulin: 0.33

CG2258 [DRSC18222]
- replicate 1, z-score of dpERK with insulin: -1.13
- replicate 2, z-score of dpERK with insulin: -0.16
- replicate 1, z-score of dpERK under basal conditions: -0.32
- replicate 1, z-score of ERK-YFP with insulin: 0.79

CG34286 [DRSC13372]
- replicate 1, z-score of dpERK with insulin: 0.89
- replicate 2, z-score of dpERK with insulin: 0.71
- replicate 1, z-score of dpERK under basal conditions: 0.56
- replicate 1, z-score of ERK-YFP with insulin: 0.55

Additional entries follow.
no.	target	amplicon	replicate 1, z-score of dpERK with insulin	replicate 2, z-score of dpERK with insulin	replicate 1, z-score of dpERK under basal conditions	replicate 1, z-score of ERK-YFP with insulin
28	CG3713	DRSC18648	0.5	0.66	0.58	-0.17
29	croc (crocodile)	DRSC11884	0.46	0.88	-1.22	0.05
30	GstD2 (Glutathione S transferase D2)	DRSC16684	-0.09	0.31	-0.22	0.46
31	Osi21 (Osiris 21)	DRSC02408	-0.21	0.58	0.99	-1.85
32	CG16935	DRSC06638	1.12	-0.21	0.83	-0.74
33	CG30280	DRSC21761	0.1	0.3	-0.68	0.54
34	CR4575 (pseudo)	DRSC18372	1.38	-0.84	0.05	0.67
35	CG42821	DRSC13231	-0.12	0.52	1.09	0.31
36	tobi (target of brain insulin)	DRSC14435	0.31	0	2.05	0.19
37	DIP-eta (Dpr-interacting protein eta)	DRSC02342	0.72	0	-0.33	-0.58
38	CG17570	DRSC01770	0.93	0.16	0	0.16
39	CG17570	DRSC03754	0.65	0.54	-0.33	-0.42
40	CG4119	DRSC17741	1.37	1.22	0.69	0.03
41	Ubc84D (Ubiquitin conjugating enzyme 84D)	DRSC12610	0.54	1.06	1.6	-0.24
42	Tsp47F (Tetraspanin 47F)	DRSC07325	-1.08	-1.27	-2	-0.78
43	ems (empty spiracles)	DRSC16941	0.95	-0.67	1.36	0.02
44	Sos (Son of sevenless)	DRSC03439	-6.28	-6.77	-3.71	-1.49
45	d4	DRSC04881	0.45	0.48	0.49	1.08
46	d4	DRSC22674	-0.15	-0.63	-0.06	-0.3
47	Pisd (Phosphatidylserine decarboxylase)	DRSC15935	0.95	6.74	-0.94	-0.56
48	Wwox (WW domain containing oxidoreductase)	DRSC03030	-0.1	0.28	-0.64	-0.37
49	Wwox (WW domain containing oxidoreductase)	DRSC22872	1.89	0.51		0.66
50	Ac78C (Adenylyl cyclase 78C)	DRSC11467	-0.11	0.77	0.55	0.08
51	Ac78C (Adenylyl cyclase 78C)	DRSC11602	-0.61	1.06	0.73	0.29
52	Ac78C (Adenylyl cyclase 78C)	DRSC11619	0.86	0.42	0.05	-0.93
53	CG2082	DRSC12125	0.81	0.84	-0.23	0.49
54	CG11723	DRSC00324	-0.01	-0.75	0.24	0.18
55	Zfrp8 (Zinc finger protein RP-8)	DRSC04352	-0.16	0.39	1.28	-0.32
56	CG34425	DRSC12210	1.2	0.18	-0.08	0.02
57	CG34425	DRSC22315	-1.71	0.87	-0.28	0.27
